Test results from the supplement of paper PMC10849652.
The other results are listed elsewhere or left out.

Sequences of proteins named here, by UniProt entry; tags and fusion partners are left off. A change or cut given only in a name is not applied to a line headed by its entry.
UniProt Q9UKT4: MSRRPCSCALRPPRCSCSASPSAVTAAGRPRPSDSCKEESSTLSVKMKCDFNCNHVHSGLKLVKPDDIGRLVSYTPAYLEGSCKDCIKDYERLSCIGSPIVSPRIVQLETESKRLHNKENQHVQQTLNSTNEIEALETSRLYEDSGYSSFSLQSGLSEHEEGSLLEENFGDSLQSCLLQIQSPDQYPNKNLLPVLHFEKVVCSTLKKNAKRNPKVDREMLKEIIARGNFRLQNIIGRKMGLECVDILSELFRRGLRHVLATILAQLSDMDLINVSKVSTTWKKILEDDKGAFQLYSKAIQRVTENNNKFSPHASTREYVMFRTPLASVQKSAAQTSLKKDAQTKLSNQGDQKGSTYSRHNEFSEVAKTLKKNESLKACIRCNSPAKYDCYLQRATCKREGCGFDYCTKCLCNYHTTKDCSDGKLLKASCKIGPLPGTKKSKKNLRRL
UniProt Q9UK73, whole entry, looked up: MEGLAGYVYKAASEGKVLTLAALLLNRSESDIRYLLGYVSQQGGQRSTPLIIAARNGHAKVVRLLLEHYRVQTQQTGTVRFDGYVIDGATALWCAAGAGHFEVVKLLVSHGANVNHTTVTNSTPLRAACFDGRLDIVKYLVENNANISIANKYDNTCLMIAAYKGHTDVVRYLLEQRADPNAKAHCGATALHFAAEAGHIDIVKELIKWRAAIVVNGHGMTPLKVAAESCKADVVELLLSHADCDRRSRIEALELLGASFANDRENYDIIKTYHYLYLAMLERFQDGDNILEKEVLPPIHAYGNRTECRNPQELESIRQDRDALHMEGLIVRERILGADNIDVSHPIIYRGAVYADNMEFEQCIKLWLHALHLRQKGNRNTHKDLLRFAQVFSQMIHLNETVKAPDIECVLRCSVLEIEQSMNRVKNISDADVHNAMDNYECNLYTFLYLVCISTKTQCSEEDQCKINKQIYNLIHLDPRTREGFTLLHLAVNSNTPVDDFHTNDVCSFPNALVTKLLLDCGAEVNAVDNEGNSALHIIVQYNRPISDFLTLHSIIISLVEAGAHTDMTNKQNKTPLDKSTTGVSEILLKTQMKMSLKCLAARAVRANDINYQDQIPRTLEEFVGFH
UniProt Q658Y4: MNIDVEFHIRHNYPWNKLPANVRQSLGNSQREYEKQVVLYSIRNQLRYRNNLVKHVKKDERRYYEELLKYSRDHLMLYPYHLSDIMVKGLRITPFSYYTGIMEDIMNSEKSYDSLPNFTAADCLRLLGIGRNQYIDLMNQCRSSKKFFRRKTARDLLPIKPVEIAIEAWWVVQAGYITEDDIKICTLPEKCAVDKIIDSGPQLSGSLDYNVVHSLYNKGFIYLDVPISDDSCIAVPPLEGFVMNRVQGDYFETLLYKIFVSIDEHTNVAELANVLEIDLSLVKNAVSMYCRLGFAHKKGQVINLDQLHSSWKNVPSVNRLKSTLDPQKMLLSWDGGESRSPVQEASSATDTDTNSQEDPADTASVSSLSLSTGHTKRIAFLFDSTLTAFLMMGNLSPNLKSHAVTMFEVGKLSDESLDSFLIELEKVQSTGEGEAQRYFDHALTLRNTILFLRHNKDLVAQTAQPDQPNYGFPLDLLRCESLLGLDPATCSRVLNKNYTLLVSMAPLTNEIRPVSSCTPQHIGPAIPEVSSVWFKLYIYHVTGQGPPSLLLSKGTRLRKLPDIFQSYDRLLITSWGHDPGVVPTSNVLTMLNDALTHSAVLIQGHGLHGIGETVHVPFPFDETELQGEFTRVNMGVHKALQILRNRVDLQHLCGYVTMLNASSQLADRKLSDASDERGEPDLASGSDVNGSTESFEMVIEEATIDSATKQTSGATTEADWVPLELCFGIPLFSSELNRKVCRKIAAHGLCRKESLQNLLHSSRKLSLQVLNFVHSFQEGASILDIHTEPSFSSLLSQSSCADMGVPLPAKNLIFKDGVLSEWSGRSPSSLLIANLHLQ
UniProt Q00688: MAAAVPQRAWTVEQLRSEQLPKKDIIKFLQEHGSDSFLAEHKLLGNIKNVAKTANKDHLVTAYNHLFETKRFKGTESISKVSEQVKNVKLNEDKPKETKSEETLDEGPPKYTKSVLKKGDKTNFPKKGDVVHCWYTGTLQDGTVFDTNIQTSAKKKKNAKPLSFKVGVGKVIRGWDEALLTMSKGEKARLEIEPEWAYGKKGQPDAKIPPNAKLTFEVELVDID
UniProt Q9Y3I1: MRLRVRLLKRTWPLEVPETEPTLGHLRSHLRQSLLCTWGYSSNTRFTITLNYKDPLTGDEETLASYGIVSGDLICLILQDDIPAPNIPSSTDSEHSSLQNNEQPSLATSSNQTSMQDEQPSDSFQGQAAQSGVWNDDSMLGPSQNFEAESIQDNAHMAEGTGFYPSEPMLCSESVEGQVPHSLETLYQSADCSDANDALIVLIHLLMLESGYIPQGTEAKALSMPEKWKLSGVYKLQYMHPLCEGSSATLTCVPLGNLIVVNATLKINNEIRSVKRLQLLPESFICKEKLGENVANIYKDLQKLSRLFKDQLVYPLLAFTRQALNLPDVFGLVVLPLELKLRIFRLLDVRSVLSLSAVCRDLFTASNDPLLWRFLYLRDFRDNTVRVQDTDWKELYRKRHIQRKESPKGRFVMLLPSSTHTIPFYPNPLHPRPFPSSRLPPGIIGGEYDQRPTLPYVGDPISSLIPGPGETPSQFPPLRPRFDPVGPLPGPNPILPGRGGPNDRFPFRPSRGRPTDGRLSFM
UniProt Q9UIM3: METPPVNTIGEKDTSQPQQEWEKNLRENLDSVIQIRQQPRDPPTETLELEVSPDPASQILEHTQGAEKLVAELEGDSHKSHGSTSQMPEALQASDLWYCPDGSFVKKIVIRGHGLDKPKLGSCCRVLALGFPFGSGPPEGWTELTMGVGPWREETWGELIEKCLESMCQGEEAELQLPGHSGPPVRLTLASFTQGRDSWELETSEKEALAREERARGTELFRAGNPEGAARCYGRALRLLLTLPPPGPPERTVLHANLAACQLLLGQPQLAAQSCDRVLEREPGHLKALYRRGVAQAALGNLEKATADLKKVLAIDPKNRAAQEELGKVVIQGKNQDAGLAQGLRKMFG
UniProt Q8TB52: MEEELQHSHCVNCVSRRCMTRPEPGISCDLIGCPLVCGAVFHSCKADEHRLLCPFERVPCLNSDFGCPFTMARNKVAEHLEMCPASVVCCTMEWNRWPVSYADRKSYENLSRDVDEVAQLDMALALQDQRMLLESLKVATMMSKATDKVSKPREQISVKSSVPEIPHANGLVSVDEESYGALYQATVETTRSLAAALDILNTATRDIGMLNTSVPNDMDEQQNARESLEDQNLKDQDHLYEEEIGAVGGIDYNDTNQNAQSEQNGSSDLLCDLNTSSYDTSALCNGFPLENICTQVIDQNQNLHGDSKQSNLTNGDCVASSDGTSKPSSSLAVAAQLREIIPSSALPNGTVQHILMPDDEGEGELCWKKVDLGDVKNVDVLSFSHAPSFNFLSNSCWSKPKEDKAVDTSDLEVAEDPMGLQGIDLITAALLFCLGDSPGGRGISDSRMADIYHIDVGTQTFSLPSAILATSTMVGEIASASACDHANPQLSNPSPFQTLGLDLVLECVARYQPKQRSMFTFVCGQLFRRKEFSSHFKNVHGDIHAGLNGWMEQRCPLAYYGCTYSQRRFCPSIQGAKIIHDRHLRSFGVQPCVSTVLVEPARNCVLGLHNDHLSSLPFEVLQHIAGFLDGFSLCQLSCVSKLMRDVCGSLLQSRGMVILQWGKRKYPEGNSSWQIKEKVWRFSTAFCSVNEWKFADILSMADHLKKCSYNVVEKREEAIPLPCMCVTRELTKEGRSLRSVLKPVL
UniProt P22830: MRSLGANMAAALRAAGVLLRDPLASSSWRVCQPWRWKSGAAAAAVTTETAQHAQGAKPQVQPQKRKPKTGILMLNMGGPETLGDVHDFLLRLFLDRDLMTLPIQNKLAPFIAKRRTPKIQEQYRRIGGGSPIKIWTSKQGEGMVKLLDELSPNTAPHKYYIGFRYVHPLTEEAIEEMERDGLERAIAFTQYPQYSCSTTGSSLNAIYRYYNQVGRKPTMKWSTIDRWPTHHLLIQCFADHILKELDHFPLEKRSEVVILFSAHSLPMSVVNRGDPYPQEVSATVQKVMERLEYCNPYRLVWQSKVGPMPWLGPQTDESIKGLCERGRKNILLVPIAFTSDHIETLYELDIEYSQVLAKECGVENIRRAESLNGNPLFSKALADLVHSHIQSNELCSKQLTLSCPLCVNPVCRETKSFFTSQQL
UniProt P22087: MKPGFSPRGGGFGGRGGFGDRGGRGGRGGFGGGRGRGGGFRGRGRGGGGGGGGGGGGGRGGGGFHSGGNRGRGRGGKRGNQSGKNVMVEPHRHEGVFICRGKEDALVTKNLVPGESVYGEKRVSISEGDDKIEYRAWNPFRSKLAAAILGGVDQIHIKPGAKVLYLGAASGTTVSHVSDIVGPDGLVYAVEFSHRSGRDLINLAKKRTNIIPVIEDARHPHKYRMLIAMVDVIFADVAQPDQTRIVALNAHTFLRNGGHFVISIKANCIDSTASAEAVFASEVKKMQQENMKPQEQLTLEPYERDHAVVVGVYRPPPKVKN
UniProt Q9HA64: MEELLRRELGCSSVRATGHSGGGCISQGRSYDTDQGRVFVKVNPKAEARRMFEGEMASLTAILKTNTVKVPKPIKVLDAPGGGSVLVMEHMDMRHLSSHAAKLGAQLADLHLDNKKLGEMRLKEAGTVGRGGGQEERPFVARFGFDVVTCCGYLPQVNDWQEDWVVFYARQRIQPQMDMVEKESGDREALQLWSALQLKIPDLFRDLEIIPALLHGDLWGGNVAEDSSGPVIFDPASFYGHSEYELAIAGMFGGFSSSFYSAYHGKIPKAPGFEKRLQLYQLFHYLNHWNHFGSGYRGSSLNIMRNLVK
UniProt Q9Y5Y0: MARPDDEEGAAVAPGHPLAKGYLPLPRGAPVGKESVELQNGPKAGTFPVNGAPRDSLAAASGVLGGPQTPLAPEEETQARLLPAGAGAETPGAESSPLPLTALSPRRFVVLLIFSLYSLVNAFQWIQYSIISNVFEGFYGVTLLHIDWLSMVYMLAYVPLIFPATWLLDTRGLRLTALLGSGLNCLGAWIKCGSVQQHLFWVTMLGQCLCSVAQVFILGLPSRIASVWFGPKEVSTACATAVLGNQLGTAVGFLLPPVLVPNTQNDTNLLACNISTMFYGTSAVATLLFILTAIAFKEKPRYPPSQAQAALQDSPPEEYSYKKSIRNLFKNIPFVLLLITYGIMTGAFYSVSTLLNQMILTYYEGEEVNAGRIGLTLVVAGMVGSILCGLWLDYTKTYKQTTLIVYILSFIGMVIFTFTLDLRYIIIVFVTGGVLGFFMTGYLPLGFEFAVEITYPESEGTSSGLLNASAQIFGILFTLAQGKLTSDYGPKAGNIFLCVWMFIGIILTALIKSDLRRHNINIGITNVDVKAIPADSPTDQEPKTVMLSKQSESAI
UniProt Q92913: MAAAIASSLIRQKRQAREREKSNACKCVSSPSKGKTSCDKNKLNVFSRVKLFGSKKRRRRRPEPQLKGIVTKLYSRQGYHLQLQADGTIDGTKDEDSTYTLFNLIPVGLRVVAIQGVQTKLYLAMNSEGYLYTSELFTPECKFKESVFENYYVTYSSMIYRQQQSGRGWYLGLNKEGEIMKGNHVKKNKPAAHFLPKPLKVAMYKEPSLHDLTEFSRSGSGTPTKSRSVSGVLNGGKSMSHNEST
UniProt Q9NRD1: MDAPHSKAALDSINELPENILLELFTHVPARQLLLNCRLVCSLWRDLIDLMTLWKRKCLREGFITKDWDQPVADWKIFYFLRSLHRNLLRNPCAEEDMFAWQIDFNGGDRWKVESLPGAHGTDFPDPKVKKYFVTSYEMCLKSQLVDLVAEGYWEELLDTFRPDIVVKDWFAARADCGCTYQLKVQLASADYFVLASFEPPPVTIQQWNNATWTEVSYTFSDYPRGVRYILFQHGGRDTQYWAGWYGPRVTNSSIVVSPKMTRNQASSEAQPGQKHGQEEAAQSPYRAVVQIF
UniProt Q9Y421: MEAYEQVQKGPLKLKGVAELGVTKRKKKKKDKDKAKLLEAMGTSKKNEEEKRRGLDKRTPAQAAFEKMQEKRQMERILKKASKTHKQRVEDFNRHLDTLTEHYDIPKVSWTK
UniProt Q9NSD9: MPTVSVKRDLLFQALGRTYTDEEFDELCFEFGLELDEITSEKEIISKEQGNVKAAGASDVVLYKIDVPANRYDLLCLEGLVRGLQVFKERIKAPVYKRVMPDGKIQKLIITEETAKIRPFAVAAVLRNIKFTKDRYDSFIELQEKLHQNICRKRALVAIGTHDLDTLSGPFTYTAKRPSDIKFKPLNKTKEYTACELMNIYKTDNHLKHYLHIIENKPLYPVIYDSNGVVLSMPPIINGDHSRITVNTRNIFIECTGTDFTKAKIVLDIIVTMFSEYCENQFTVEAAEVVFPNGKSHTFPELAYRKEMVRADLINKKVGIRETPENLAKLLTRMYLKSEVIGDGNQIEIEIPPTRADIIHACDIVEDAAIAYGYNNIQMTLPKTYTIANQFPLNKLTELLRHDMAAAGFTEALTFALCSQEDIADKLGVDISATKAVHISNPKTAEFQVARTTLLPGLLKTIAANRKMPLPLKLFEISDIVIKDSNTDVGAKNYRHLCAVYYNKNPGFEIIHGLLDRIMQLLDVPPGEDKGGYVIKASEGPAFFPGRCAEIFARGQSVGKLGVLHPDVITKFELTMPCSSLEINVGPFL

compound: Cc1nc(Nc2n[nH]c3c2CN(C(=O)N[C@H](CN(C)C)c2ccccc2)C3(C)C)c2sccc2n1; test: log2 fold change, soluble protein after heating vs DMSO (PISA); higher = thermal stabilisation; K562 cells, 10 uM, 30 min; active = over 0.2 and 3.5 SD of the protein, either way, in both replicates (recomputed)
Procedure, shortened: (§1)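 Soluble protein was defined as the supernatant after 21,000xg for 90 min. It came from K562 cells at 2×10^6 cells/mL given 10 μM compound for 30 min, heated in aliquots for 3 min across 48°C-58°C, pooled, and extracted in PBS with 0.5% NP-40 at 4°C, and was quantified by TMTpro 16plex LC-MS/MS with equalised channel sums. Thermal stability against control samples, from duplicates, is reported as log2 fold change.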

log2 fold change, inactive:
FBXO5 (UniProt Q9UKT4) -0.043
FEM1B (UniProt Q9UK73) -0.031
FKBP7 (UniProt Q9Y680) -0.058
FAM76B (UniProt Q5HYJ3) 0.185
FIP1L1 (UniProt Q6UN15) -0.095
FBXO22 (UniProt Q8NEZ5) -0.058
FAM91A1 (UniProt Q658Y4) 0.073
FKBP15 (UniProt Q5T1M5) -0.134
FKBP3 (UniProt Q00688) 0.041
FBXO7 (UniProt Q9Y3I1) 0.059
FDX2 (UniProt Q6P4F2) 0.02
FDFT1 (UniProt P37268) 0.071
FBXL20 (UniProt Q96IG2) 0.008
FKBPL (UniProt Q9UIM3) -0.038
FARS2 (UniProt O95363) 0.079
FBXO30 (UniProt Q8TB52) 0.017
FHL2 (UniProt Q14192) 0.003
FECH isoform 2 (UniProt P22830) -0.04
FAM50A (UniProt Q14320) -0.096
FBL (UniProt P22087) -0.017
FBLL1 (UniProt A6NHQ2) -0.15
FBXO3 (UniProt Q9UK99) -0.024
FN3KRP (UniProt Q9HA64) 0.042
FLVCR1 (UniProt Q9Y5Y0) 0.069
FAM8A1 (UniProt Q9UBU6) 0.083
FGFR1OP (UniProt O95684) -0.015
FKBP14 (UniProt Q9NWM8) 0.122
FGF13 isoform 3 (UniProt Q92913) 0.017
FBXO6 (UniProt Q9NRD1) -0.004
FKBP2 (UniProt P26885) 0.013
FAM32A (UniProt Q9Y421) 0.18
FDPS (UniProt P14324) 0.035
FNBP4 isoform 2 (UniProt Q8N3X1) -0.004
FAM98B (UniProt Q52LJ0) 0
FARSB (UniProt Q9NSD9) -0.002
FAM98A (UniProt Q8NCA5) 0.084
FAU (UniProt P62861) 0.198
FIS1 (UniProt Q9Y3D6) -0.002
FAM3C (UniProt Q92520) -0.161

compound: Cc1nc(Nc2ncc(C(=O)Nc3c(C)cccc3Cl)s2)cc(N2CCN(CCO)CC2)n1 [dasatinib]; test: as above
Procedure, shortened: as §1

log2 fold change, inactive:
FBXO5 (UniProt Q9UKT4) -0.042
FEM1B (UniProt Q9UK73) -0.065
FKBP7 (UniProt Q9Y680) 0.064
FAM76B (UniProt Q5HYJ3) 0.017
FIP1L1 (UniProt Q6UN15) 0.091
FBXO22 (UniProt Q8NEZ5) -0.131
FAM91A1 (UniProt Q658Y4) -0.048
FKBP15 (UniProt Q5T1M5) -0.058
FKBP3 (UniProt Q00688) -0.003
FBXO7 (UniProt Q9Y3I1) -0.102
FDX2 (UniProt Q6P4F2) -0.007
FDFT1 (UniProt P37268) 0.023
FBXL20 (UniProt Q96IG2) -0.031
FKBPL (UniProt Q9UIM3) -0.005
FARS2 (UniProt O95363) -0.058
FBXO30 (UniProt Q8TB52) -0.029
FHL2 (UniProt Q14192) 0.022
FECH isoform 2 (UniProt P22830) 0.46
FAM50A (UniProt Q14320) -0.134
FBL (UniProt P22087) 0.454
FBLL1 (UniProt A6NHQ2) 0.269
FBXO3 (UniProt Q9UK99) -0.054
FN3KRP (UniProt Q9HA64) 0.02
FLVCR1 (UniProt Q9Y5Y0) 0.14
FAM8A1 (UniProt Q9UBU6) 0
FGFR1OP (UniProt O95684) 0.016
FKBP14 (UniProt Q9NWM8) -0.055
FGF13 isoform 3 (UniProt Q92913) -0.109
FBXO6 (UniProt Q9NRD1) -0.202
FKBP2 (UniProt P26885) -0.002
FAM32A (UniProt Q9Y421) 0.174
FDPS (UniProt P14324) -0.392
FNBP4 isoform 2 (UniProt Q8N3X1) 0.049
FAM98B (UniProt Q52LJ0) -0.092
FARSB (UniProt Q9NSD9) -0.046
FAM98A (UniProt Q8NCA5) 0.055
FAU (UniProt P62861) 0.151
FIS1 (UniProt Q9Y3D6) -0.044
FAM3C (UniProt Q92520) 0.026
